Assay results from PMC5617977, “Antibacterial Activity and Toxicity of Analogs of Scorpion Venom IsCT Peptides” (Antibiotics, 2017).
Where no end group is shown, it is not given here.

Test: Circular dichroism, helical structure
Type: physicochemical
Settings: three independent experiments; for % Helix 50% TFE: CD in 50% TFE in water; for % Helix Water: CD in water; for [θ]222 50% TFE / [θ]222 Water: CD; for [θ]222 50% TFE: mean residue molar ellipticity in 50% TFE in water; for [θ]222 Water: mean residue molar ellipticity in water

| Substance | % Helix 50% TFE | % Helix Water | [θ]222 50% TFE | [θ]222 Water |
| --- | --- | --- | --- | --- |
| IFGAIWNGIKSLF-NH2 [IsCT2, reference compound] | 22.0% | Random | −9006.83 deg·cm^2·dmol^−1 | −1242.43 deg·cm^2·dmol^−1 |
| ILGAAWNGAKSLF-NH2 [IsCT2A1, alanine substituted (positions 5 and 9) analog of IsCT2] | 4.3% | Random | −3633.66 deg·cm^2·dmol^−1 | −89.92 deg·cm^2·dmol^−1 |
| ILGAVWNGVKSLF-NH2 [IsCT2V1, valine substituted (positions 5 and 9) analog of IsCT2] | 14.0% | Random | −6586.81 deg·cm^2·dmol^−1 | −793.14 deg·cm^2·dmol^−1 |
| ILGKIWEGIKSLF-NH2 [IsCT1, reference compound] | 30.2% | Random | −11,484.85 deg·cm^2·dmol^−1 | −2046.57 deg·cm^2·dmol^−1 |
